Results on 6 substances are retold here after US4568490A (Zaidan Hojin Biseibutsu Kagaku Kenkyu Kai, priority 1981, dated 1986).

A short description of the series: general procedure: peptide synthesis; sodium cyanoborohydride (reductive alkylation); HOBT for amidation of bleomycini. Particulars: late stage modification step.
[1] abbreviates: trihydrochloride or tetrahydrochloride (copper-free).

“3-[4-(3-dibenzylaminopropyl)piperazin-1-yl]propylaminobleomycin” came in with a step yield (tetrahydrochloride) of 65% yield.
Turning to “3-[N,N-diethyl-N-(3'-dibenzylamino)propyl]aminopropylaminobleomycin”, the step yield amounted to 92% yield (trihydrochloride) and 75% yield under setting [1].
For the setting “tetrahydrochloride”, “3-{N,N-dimethyl-N-[3'-(N,N-dimethyl-N-(3'-dibenzylaminopropyl)amino)propyl]amino}propylaminobleomycin” gave a step yield of 55% yield.
Under “trihydrochloride”, “3-{N-methyl-N-[3'-(bis(m,p-dibenzyloxybenzyl)amino)propyl]amino}propylaminobleomycin” registered a step yield of 57% yield.
For “3-{N-methyl-N-[3'-(cyclooctylmethylamino)propyl]amino}propylaminobleomycin”, the step yield (trihydrochloride) was determined as 58% yield.
As for “3-{N-methyl-N-[3'-(cycloundecanylmethylamino)propyl]amino}propylaminobleomycin”, the step yield is, setting by setting: (trihydrochloride) 90% yield; under setting [1], 79% yield.
